Measurements: US20210121518A1, “HER2-TARGETED PEPTIDOMIMETICS GRAFTED ONTO MULTICYCLIC PEPTIDE SCAFFOLDS AND METHODS AND USES” (Board of Supervisors for the University of Louisiana System, priority 2018, published 2021)
Part of at least one peptide drawing is inferred or uncertain, most often the ends. Numbered stars: 1 amine (or outer) side, 2 acyl side, 3 side chain; on linkers, the order of the positions; unused ones are H or OH. Square brackets hold non-standard residues; d marks the D form. Peptide text beside a SMILES is read from it. βAla(3R-(1-naphthyl)) = O=C(C[C@@H](N[*:1])c1cccc2ccccc12)[*:2]

Test system: HER2-overexpressing lung cancer Calu-3 cell lines
Settings: including lung cancer cell line Calu-3
Method: X=Anapa, amino naphthyl propionic acid, specifically, 3-amino 3(1-napthyl) propionic acid. Single letter amino acid code was used for peptide sequence. Small letters refer to D amino acids and capital letters refer to L amino acids. Chirality of Anapa was indicated with R and S configuration in italics. Antiproliferative activity of peptides in cancer cell lines are given as IC50 μM. Disulfide bond between the cysteines is shown in underline.

SMILES: N=C(N)NCCC[C@@H]1NC(=O)[C@H]2CCCN2C(=O)[C@@H]2CCCN2C(=O)[C@H](CCCNC(=N)N)NC(=O)C[C@H](c2cccc3ccccc23)NC(=O)[C@H](Cc2ccccc2)NC(=O)[C@H](CC(=O)O)NC(=O)[C@H](CC(=O)O)NC(=O)[C@H](Cc2ccccc2)NC(=O)C[C@H](c2cccc3ccccc23)NC1=O [compound 18, reference compound] (cyclo(P[dP]R[βAla(3R-(1-naphthyl))]FDDF[βAla(3R-(1-naphthyl))]R))
- antiproliferative activity IC50 (in words): low nanomolar range
